Screen size: about 53,000 sequences; about 3,700 (7%) were called active.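 Rule for the calls: active = gene knockdowns whose robust z-score for IL-1 alpha signal is at least 2 or at most -2, so actives lie on both sides; inactive = the rest.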 Some of the results follow.

A short description of this assay: Components of the Cytosolic LPS Sensing Pathway: Gene Identification via Genome-wide siRNA Screen.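 Note: robust z of the log signal after scaling to non-targeting control siRNA wells of the plate.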 The note with it: RAW264.7 macrophages, IL-1a HTRF, actives lie on both sides, screened at 100 nM (by protocol), cells primed 5 h with Pam3CSK4 first. A digest of the protocol:
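Using IL-1a HTRF as read-out, the screen measured release from RAW264.7 cells after 48h siRNA knockdown (100 nM), 5 h Pam3CSK4 priming and 24 h cytosolic LipidA. Values were expressed relative to negative-control wells as robust z-scores.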
In the case of GGGCAGUAAGGACAGUUUUTT against Oaz1, the z-score is inactive: 0.406. Next, CCUGCCAACUACGAAUGAATT against Stx8: inactive: 0.845.

On to GCGCAGAGAGAAAUAUCCCTT against Map4k1, for which the z-score is inactive: -0.777. As to GCCUAGUUCUUUAUGCUAUTT against Golga4, the z-score is active: 4.37. Next, GGAAAUUUGGAAAUUGCCUTT against Ntm: active: 2.46; GGGCACUUCUUCAAUGUAUTT against Arl6ip6: inactive: -0.462. The value for GCUGACUUUUAGUCAAGGATT against Dab2 was inactive: 0.87; that for CCAAGGACUCUCAUCUGUUTT against Zfp474 was inactive: -0.712.

For the sequence GCUCAUGACACUCUUCCUGTT against Spib, the z-score is inactive: 1.45. The value for CGAGUUGAAAUGUUGGCAATT against Klb was inactive: -0.278; that for GCCUGACUAGAAAUAAAAATT against Pde4c was inactive: -0.448. The value for CAGUCUACCAGAUCCUUCCTT against H2-Q8 was inactive: -0.418; that for “CCUAGAUUCUCCAAACUAATT against D630029K05Rik” was inactive: -0.238; that for GGUCCAUCGAAGAAGUUCUTT against Cmas was inactive: 0.983.

In the case of CCCAGAUCUAGACUCCGACTT against Maf1, the z-score is inactive: 1.65. The value for GGAGAUCAAAAAAAGAAAGTT against Cfl2 was inactive: -0.816; that for GGCUCUCUUAGUUGUAUCATT against Mrpl35 was inactive: -0.0818.

Regarding GGCCCUGAAGAAAGUUAUUTT against Olfr830, the z-score is inactive: 0.87.

In the case of GGGUGAGAGGAAACAGAAATT against Mtif3, the z-score is inactive: -0.276. GGCCAAGAAUUCUCUGGUCTT against Six5: the z-score was inactive: -0.0725. Next, CCAGAUGGUCAAUCAGGCATT against Bola3: inactive: -0.304; GGUAGUCACUUUCAGAGGATT against Cnot6: inactive: 0.823; GGAAAAGCAAGUCAAUCAATT against Polk: inactive: 0.608.

Consider CGCAGGACUAUAAACUGAATT against Ptdss2, for which the z-score was inactive: 0.954. Next, GCACAAUAAACUUGAUAACTT against Mepce: inactive: 0.843; GCACCUAAUGAUCACAGUGTT against Nrip3: inactive: 0.393. Next, GGAUGAUGAGCUGAACUUUTT against Mgrn1: inactive: -0.897; GCAUAACUCCCAUCCAUAGTT against Glra2: inactive: -0.622; GGUUGUUAAUCAGUGUUUATT against Ciao2b: inactive: -0.257.

Regarding GGUUGAGGAAACAAGACAUTT against Fbxo42, the z-score is inactive: -0.478.

For the origin of these results see PubChem BioAssay AID1508600 (Functional Genomics Laboratory (NCATS/FGL), 2020).
